From patent US20170327789A1, “Modulation of Dopamine Receptor to Promote Neural Cell Differentiation” (The Hospital for Sick Children, priority 2014, published 2017)
Some entries share one result that the patent states for a list of compounds. Some compounds share one range, which may span the group rather than tell each member.

Tested on: human fetal NSC
Experiment: Hit validation for differentiation, two step growth withdrawal method, 8 days
Type: cell-based
Conditions: L-741,742 3 μM, PNU96415E 15 μM, Ifenprodil tartrate 1.5 μM, McN A-343 4 μM, (−)-N-Phenylcarbamoyleseroline 6 μM, control 2-9%

(−) —N-Phenylcarbamoyleseroline
neuronal differentiation: 12-40%
